# Measured values taken from the supplement of paper PMC4604168 (melanoma cell lines).
# Some of the results follow. Repeats are few or missing, and single values can be far off.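 The apoptosis fraction was the count of cleaved-PARP antibody-stained nuclei relative to all DNA-stained nuclei, imaged in 1,536-well plates. Screening doses were set so most cells survived, and baseline and induced cleaved-PARP levels vary greatly across cell lines.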
# System: RPMI7951
# Assay: cleaved PARP positive nuclei fraction relative to DMSO control; melanoma cells; higher = more apoptosis
# Details: library dose: low library concentration; 72 h
row,SMILES,cleaved PARP positive nuclei fraction
1,"CS(=O)(=O)c1ccc(C(=O)Nc2ccc(Cl)c(-c3ccccn3)c2)c(Cl)c1 [vismodegib] + NC(=O)Nc1cc(-c2cccc(F)c2)sc1C(=O)N[C@H]1CCCNC1 [AZD7762] (first compound 1 µM, partner dose 0.02 µM)",174%
2,"Cn1cnc2c(F)c(Nc3ccc(Br)cc3Cl)c(C(=O)NOCCO)cc21 [selumetinib] + Cc1cc(N2CCOCC2)cc2[nH]c(-c3c(NC[C@@H](O)c4cccc(Cl)c4)cc[nH]c3=O)nc12 [BMS536924] (first compound 0.015 µM, partner dose 0.2 µM)",79.3%
3,"Cn1cnc2c(F)c(Nc3ccc(Br)cc3Cl)c(C(=O)NOCCO)cc21 [selumetinib] + Oc1nc(-c2ccc(C(F)(F)F)cc2)nc2c1CSCC2 [XAV939] (first compound 0.015 µM, partner dose 2 µM)",38%
4,"COc1ccc(C2=N[C@@H](c3ccc(Cl)cc3)[C@@H](c3ccc(Cl)cc3)N2C(=O)N2CCNC(=O)C2)c(OC(C)C)c1 [Nutlin-3] + Oc1nc(-c2ccc(C(F)(F)F)cc2)nc2c1CSCC2 [XAV939] (first compound 0.1 µM, partner dose 2 µM)",146%
5,"NC(=O)c1ccc(N(C(N)=O)c2c(F)cccc2F)nc1-c1ccc(F)cc1F + COc1cc2c(Oc3ccc4[nH]c(C)cc4c3F)ncnc2cc1OCCCN1CCCC1 [cediranib] (first compound 0.4 µM, partner dose 0.4 µM)",50.9%
6,"Cn1cnc2c(F)c(Nc3ccc(Br)cc3Cl)c(C(=O)NOCCO)cc21 [selumetinib] + CCN(CC)CCCCNc1ncc2cc(-c3cc(OC)cc(OC)c3)c(NC(=O)NC(C)(C)C)nc2n1 [PD173074] (first compound 0.015 µM, partner dose 0.1 µM)",103%
